# The list shows a part of the results.
# B1: Blon2355mut (Bifidobacterium longum) (protein)
# chain: MVQEPTLEWHVIPEPTNVEPLVGTCSLPLSGTVVEQRGADDAEAVFARQLVDDIKRVCGGRWQVASGEVQREVTLRTSPSLDDWSYVLEVSPDGVVITGSGFEGVRDGVQTLRQIIRQIGLTIPCMVIRDRPAFSTRGYYLDVTRGRVPSMAWLKSWVDRLCFYKYNQFQLYIEHTFQFNGLSEVWRGADPLTSSDILELDSYCAARGIELVPSVSTFGHHYTALRTRQLRDLGEFPEDADRPFSLIERMTHHTLNITDERSYEFSTSLIDELMPLFRSRKFNICANETFDLGKGRSKQESAKRGVGAMYADFVERLCRHVDDRGHDVMVWADVALEHPEIIDTLPKNITWLNWQYEPNVDDGTTAALADAGATQMVCPAVWCWNALIPRIDDAWNNITRMARHGRAHDVSGMLVTDWGDFGHVNDPRMSVPGMIFGAQQSWNPDAELSEVDMLSRISTIEYGDHTGSVVGALRGASAKGGFSWSDLVTYLELDDGRGGCNTEIVRVMGCLEAYRNDLPQSGQARLADARVSMLRTLRDSILAGRELNGKLDDAAKDITQLLRVAGDPSSAAVWSLAIDGQRLLNRVGLALLAAHGVVRQDEAGIDAAKLADELECWTEQYSRLWHEVSRQSELARIQHVVWRAADVLRSI
# Key:
# Assay in all cases: glycan array binding signal (z-score within array); higher = stronger binding
# Conditions in all cases: glycan notation: IUPAC condensed, linker removed
# [1] = biological target: Gal(b1-3)GlcNAc(b1-2)Man(a1-3)[GlcNAc(b1-4)][Gal(b1-3)GlcNAc(b1-2)Man(a1-6)]Man(b1-4)GlcNAc(b1-4)GlcNAc
# In short: (§1)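 Glycan array data came from 3228 arrays in the Consortium for Functional Glycomics database, and only arrays with an available protein sequence were kept. Glycan names were put into IUPAC-condensed notation, and columns mapping to the same glycan were averaged. The binding signal is a within-array Z-score, averaged across arrays of one protein sequence run at different concentrations or buffers and across linkers. A negative Z-score can be read as non-binding.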
# [2] = biological target: Gal(b1-3)GlcNAc(b1-2)[Gal(b1-3)GlcNAc(b1-6)]Man(a1-6)[Gal(b1-3)GlcNAc(b1-2)Man(a1-3)]Man(b1-4)GlcNAc(b1-4)GlcNAc
# In short: as §1
# [3] = biological target: Gal(b1-3)GlcNAc(b1-3)Gal(b1-3)GlcNAc
# In short: as §1
# [4] = biological target: Gal(b1-3)GlcNAc(b1-3)Gal(b1-4)Glc
# In short: as §1
# [5] = biological target: Gal(b1-3)GlcNAc(b1-3)Gal(b1-4)GlcNAc
# In short: as §1
# [6] = biological target: Gal(b1-3)GlcNAc(b1-3)Gal(b1-4)GlcNAc(b1-2)Man(a1-3)[Gal(b1-3)GlcNAc(b1-3)Gal(b1-4)GlcNAc(b1-2)Man(a1-6)]Man(b1-4)GlcNAc(b1-4)GlcNAc
# In short: as §1
# [7] = biological target: Gal(b1-3)GlcNAc(b1-3)Gal(b1-4)GlcNAc(b1-2)[Gal(b1-3)GlcNAc(b1-3)Gal(b1-4)GlcNAc(b1-6)]Man(a1-6)[Gal(b1-3)GlcNAc(b1-3)Gal(b1-4)GlcNAc(b1-2)Man(a1-3)]Man(b1-4)GlcNAc(b1-4)[Fuc(a1-6)]GlcNAc
# In short: as §1
# [8] = biological target: Gal(b1-3)GlcNAc(b1-3)Gal(b1-4)GlcNAc(b1-3)Gal(b1-4)GlcNAc(b1-2)[Gal(b1-3)GlcNAc(b1-3)Gal(b1-4)GlcNAc(b1-3)Gal(b1-4)GlcNAc(b1-6)]Man(a1-6)[Gal(b1-3)GlcNAc(b1-3)Gal(b1-4)GlcNAc(b1-3)Gal(b1-4)GlcNAc(b1-2)Man(a1-3)]Man(b1-4)GlcNAc(b1-4)[Fuc(a1-6)]GlcNAc
# In short: as §1
# [9] = biological target: Gal(b1-3)GlcNAc(b1-3)Gal(b1-4)GlcNAc(b1-6)[Gal(b1-3)GlcNAc(b1-3)]Gal(b1-4)Glc
# In short: as §1
# [10] = biological target: Gal(b1-3)GlcNAc(b1-3)Gal(b1-4)[Fuc(a1-3)]GlcNAc(b1-6)[Gal(b1-3)GlcNAc(b1-3)]Gal(b1-4)Glc
# In short: as §1
# [11] = biological target: Gal(b1-3)GlcNAc(b1-3)GalNAc
# In short: as §1
# [12] = biological target: Gal(b1-3)GlcNAc(b1-6)Gal(b1-4)GlcNAc
# In short: as §1
# [13] = biological target: Gal(b1-3)GlcNAc(b1-6)GalNAc
# In short: as §1
# [14] = biological target: Gal(b1-3)GlcNAc(b1-6)[Gal(b1-3)]GalNAc
# In short: as §1
# Gal(b1-3)GlcNAc6S = biological target: Gal(b1-3)GlcNAc6S
# In short: as §1
# [15] = biological target: Gal(b1-3)[Fuc(a1-4)]GlcNAc
# In short: as §1
# [16] = biological target: Gal(b1-3)[Fuc(a1-4)]GlcNAc(b1-2)Man
# In short: as §1
# [17] = biological target: Gal(b1-3)[Fuc(a1-4)]GlcNAc(b1-2)Man(a1-3)[Gal(b1-3)[Fuc(a1-4)]GlcNAc(b1-2)Man(a1-6)]Man(b1-4)GlcNAc(b1-4)[Fuc(a1-6)]GlcNAc
# In short: as §1
# [18] = biological target: Gal(b1-3)[Fuc(a1-4)]GlcNAc(b1-3)Gal(b1-3)[Fuc(a1-4)]GlcNAc
# In short: as §1
# [19] = biological target: Gal(b1-3)[Fuc(a1-4)]GlcNAc(b1-3)Gal(b1-4)GlcNAc
# In short: as §1
# [20] = biological target: Gal(b1-3)[Fuc(a1-4)]GlcNAc(b1-3)Gal(b1-4)[Fuc(a1-3)]GlcNAc
# In short: as §1
# [21] = biological target: Gal(b1-3)[Fuc(a1-4)]GlcNAc(b1-6)GalNAc
# In short: as §1
# [22] = biological target: Gal(b1-3)[GlcNAc(b1-6)]GalNAc
# In short: as §1
# [23] = biological target: Gal(b1-3)[Neu5Ac(a2-6)]GalNAc
# In short: as §1
# [24] = biological target: Gal(b1-3)[Neu5Ac(a2-6)]GlcNAc(b1-4)Gal(b1-4)Glc
# In short: as §1
# [25] = biological target: Gal(b1-3)[Neu5Ac(b2-6)]GalNAc
# In short: as §1
# Gal(b1-4)Gal = biological target: Gal(b1-4)Gal
# In short: as §1
# [26] = biological target: Gal(b1-4)GalNAc(a1-3)[Fuc(a1-2)]Gal(b1-4)GlcNAc
# In short: as §1
# [27] = biological target: Gal(b1-4)GalNAc(b1-3)[Fuc(a1-2)]Gal(b1-4)GlcNAc
# In short: as §1
# Gal(b1-4)Glc = biological target: Gal(b1-4)Glc
# In short: as §1
binder,measurement,setting,value
B1,glycan array binding signal (z-score),[1],-1.02
same,glycan array binding signal (z-score),[2],0.925
same,glycan array binding signal (z-score),[3],0.371
same,glycan array binding signal (z-score),[4],-0.735
same,glycan array binding signal (z-score),[5],-0.288
same,glycan array binding signal (z-score),[6],-0.406
same,glycan array binding signal (z-score),[7],2.04
same,glycan array binding signal (z-score),[8],0.301
same,glycan array binding signal (z-score),[9],-0.197
same,glycan array binding signal (z-score),[10],-1.19
same,glycan array binding signal (z-score),[11],-0.373
same,glycan array binding signal (z-score),[12],-0.48
same,glycan array binding signal (z-score),[13],-0.309
same,glycan array binding signal (z-score),[14],0.181
same,glycan array binding signal (z-score),Gal(b1-3)GlcNAc6S,0.237
same,glycan array binding signal (z-score),[15],-0.759
same,glycan array binding signal (z-score),[16],-0.393
same,glycan array binding signal (z-score),[17],0.686
same,glycan array binding signal (z-score),[18],-1.02
same,glycan array binding signal (z-score),[19],-0.01
same,glycan array binding signal (z-score),[20],0.567
same,glycan array binding signal (z-score),[21],-0.606
same,glycan array binding signal (z-score),[22],0.705
same,glycan array binding signal (z-score),[23],-0.387
same,glycan array binding signal (z-score),[24],-0.749
same,glycan array binding signal (z-score),[25],-0.401
same,glycan array binding signal (z-score),Gal(b1-4)Gal,-0.262
same,glycan array binding signal (z-score),[26],-0.55
same,glycan array binding signal (z-score),[27],0.202
same,glycan array binding signal (z-score),Gal(b1-4)Glc,0.223

# A different layout for some results above:
binder	measurement	setting	value
B1	glycan array binding signal (z-score)	Gal(b1-3)GlcNAc6S	0.237
same	glycan array binding signal (z-score)	[15]	-0.759

# Source: the supplement of paper PMC8728848
